Record: PubChem BioAssay AID652243 (Drosophila RNAi Screening Center, 2013)

Aim: 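Fly genes required for human androgen receptor driven transcription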 (primary screen)
System: Drosophila S2R+ cells
Knock-down reagent: long dsRNA against Drosophila genes
Time to read-out: 72 h (48 h, then 24 h hormone)
Treatment: synthetic androgen R1881 at 10 nM for 24 h
Measured: 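Firefly light from an androgen-responsive reporter and Renilla control light per well, raw and unnormalised, for each of two replicates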
Scale: firefly reporter light: higher = more light from androgen-responsive reporter; Renilla control light: higher = more constitutive control signal (cell number, transfection)
Rule for the call: 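Across duplicate plates, a knock-down whose log firefly/Renilla ratio shifted a set fold down or up from the GFP/LacZ control mean was a hit; the downward cut appears as both 1.5 and 3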
Calls: active = hit: reporter lowered or raised; inactive = no hit
The deposit covers about 24,000 reagents; this is an unselected part of those with a known target gene and a result. Over the whole deposit, 246 (1%) were called active. 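Plates not normalised; calls are printed but the firefly/Renilla ratio behind them is not deposited; fold cut for lowering reported inconsistently.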 Raw values vary from plate to plate and are shown uncorrected. A plus sign joins genes that one reagent is predicted to hit. Reagent sequences are not shown. Not stated in the record: the amount of reagent.

predicted target,amplicon,"firefly reporter light, replicate 1","firefly reporter light, replicate 2","Renilla control light, replicate 1","Renilla control light, replicate 2",call
CG32087 (GeneID 39323),DRSC10806,2.35e5,94740,2.02e6,1.23e6,inactive
CG32087 (GeneID 39323),DRSC24793,6.26e5,5.12e5,7.07e5,6.42e5,inactive
Osi6 (GeneID 40760),DRSC12128,37914,56202,8.91e5,9.88e5,inactive
Osi6 (GeneID 40760),DRSC25935,4.65e5,6.36e5,1.03e6,7.51e5,inactive
Tsp42Ec (GeneID 35612),DRSC06192,2.03e5,2.04e5,1.36e6,1.75e6,inactive
Tsp42Ec (GeneID 35612),DRSC26768,4.40e5,2.99e5,1.01e6,7.19e5,inactive
CG12645 (GeneID 31947),DRSC17851,2.60e5,3.53e5,3.06e6,2.74e6,inactive
CG12645 (GeneID 31947),DRSC24406,8.70e5,1.16e6,1.18e6,9.34e5,inactive
CG32713 (GeneID 318166),DRSC22766,3.69e5,7.67e5,1.09e6,1.37e6,inactive
CG43774 + CG43773,DRSC00287,1.18e5,79066,6.23e5,5.20e5,inactive
CG43774 + CG43773,DRSC00288,1.11e5,1.02e5,6.04e5,9.86e5,inactive
CG43774 + CG43773,DRSC26834,5.50e5,3.14e5,1.17e6,3.94e5,inactive
CG42674 (GeneID 40205),DRSC10066,3.98e5,2.14e5,2.90e6,3.08e6,inactive
CG42674 (GeneID 40205),DRSC10067,2.70e5,2.42e5,3.57e6,3.36e6,inactive
CG42674 (GeneID 40205),DRSC10811,3.20e5,2.74e5,3.18e6,3.25e6,inactive
CG42674 (GeneID 40205),DRSC25036,7.21e5,6.34e5,9.00e5,7.08e5,inactive
CG42674 (GeneID 40205),DRSC29701,3.26e5,3.65e5,1.05e6,1.20e6,inactive
Obp18a (GeneID 32897),DRSC19736,2.35e5,1.66e5,8.94e5,5.95e5,inactive
GstZ1 (GeneID 41132),DRSC16478,96946,1.81e5,5.73e5,9.68e5,inactive
Ir51b (GeneID 246442),DRSC05540,78394,66616,1.78e5,1.42e5,inactive
CG11586 (GeneID 38520),DRSC08203,6.68e5,7.68e5,1.76e6,2.11e6,inactive
CG11586 (GeneID 38520),DRSC27459,2.83e5,2.55e5,7.49e5,7.15e5,inactive
CG30278 (GeneID 246523),DRSC22787,7.81e5,1.03e6,1.71e6,2.48e6,inactive
Ubc6 (GeneID 40610),DRSC12370,62182,65551,4.95e5,6.48e5,inactive
Ubc6 (GeneID 40610),DRSC28862,1.02e6,1.13e6,8.29e5,7.18e5,inactive
Gcn2 + PNPase,DRSC36724,,,,,inactive
Grl65a (GeneID 117342),DRSC08837,2.63e5,1.10e5,5.60e5,3.77e5,inactive
Grl65a (GeneID 117342),DRSC25986,5.17e5,5.50e5,8.82e5,8.64e5,inactive
kek6 (GeneID 43729),DRSC15299,31875,66710,1.10e6,1.56e6,inactive
kek6 (GeneID 43729),DRSC23759,5.63e5,3.89e5,6.32e5,6.23e5,inactive
CG33783 (GeneID 3771958),DRSC37804,9.29e5,4.25e5,1.73e6,5.93e5,inactive
Cortactin (GeneID 42491),DRSC16612,1.38e5,1.22e5,8.90e5,6.88e5,inactive
Cortactin (GeneID 42491),DRSC28012,5.63e5,5.23e5,9.73e5,1.12e6,inactive
Myo31DF (GeneID 34445),DRSC03376,9.74e5,9.00e5,2.12e6,2.32e6,inactive
Myo31DF (GeneID 34445),DRSC22702,7.68e5,7.53e5,1.09e6,1.02e6,inactive
Myo31DF (GeneID 34445),DRSC25363,3.83e5,3.67e5,7.05e5,5.96e5,inactive
CG11841 (GeneID 43430),DRSC14399,61522,57995,5.10e5,2.71e5,inactive
CG11841 (GeneID 43430),DRSC28256,3.15e5,4.97e5,1.09e6,1.43e6,inactive
Syx16 (GeneID 33034),DRSC20507,53364,28918,4.55e5,6.11e5,inactive
Syx16 (GeneID 33034),DRSC27163,2.23e5,2.28e5,4.37e5,4.79e5,inactive

Laid out differently: results already given
{"predicted target":"CG30278 (GeneID 246523)","amplicon":"DRSC22787","firefly reporter light, replicate 1":7.81e5,"firefly reporter light, replicate 2":1.03e6,"Renilla control light, replicate 1":1.71e6,"Renilla control light, replicate 2":2.48e6,"call":"inactive"}
{"predicted target":"Ubc6 (GeneID 40610)","amplicon":"DRSC12370","firefly reporter light, replicate 1":62182,"firefly reporter light, replicate 2":65551,"Renilla control light, replicate 1":4.95e5,"Renilla control light, replicate 2":6.48e5,"call":"inactive"}
{"predicted target":"Ubc6 (GeneID 40610)","amplicon":"DRSC28862","firefly reporter light, replicate 1":1.02e6,"firefly reporter light, replicate 2":1.13e6,"Renilla control light, replicate 1":8.29e5,"Renilla control light, replicate 2":7.18e5,"call":"inactive"}
{"predicted target":"Gcn2 + PNPase","amplicon":"DRSC36724","call":"inactive"}
{"predicted target":"Grl65a (GeneID 117342)","amplicon":"DRSC08837","firefly reporter light, replicate 1":2.63e5,"firefly reporter light, replicate 2":1.10e5,"Renilla control light, replicate 1":5.60e5,"Renilla control light, replicate 2":3.77e5,"call":"inactive"}
